# Library screen at single concentrations

Amino acid sequences for entries named in this document (tags omitted).
UniProt P9WFT3, whole entry: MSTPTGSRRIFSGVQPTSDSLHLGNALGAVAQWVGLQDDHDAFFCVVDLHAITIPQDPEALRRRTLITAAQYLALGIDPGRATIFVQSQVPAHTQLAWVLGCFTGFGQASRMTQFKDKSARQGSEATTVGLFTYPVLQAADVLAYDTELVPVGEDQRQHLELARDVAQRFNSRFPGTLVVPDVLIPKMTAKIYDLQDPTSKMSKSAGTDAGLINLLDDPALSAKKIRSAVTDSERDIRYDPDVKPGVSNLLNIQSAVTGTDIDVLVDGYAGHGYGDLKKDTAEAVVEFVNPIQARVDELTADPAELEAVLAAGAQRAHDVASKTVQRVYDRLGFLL

The values are deposited in ChEMBL (CHEMBL3988442, “University of Dundee, Small-Polar-MMV Screening Library” (2021)).

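Tryptophan-tRNA ligase, Mycobacterium tuberculosis (UniProt P9WFT3). Enzyme assay of tryptophanyl-tRNA synthetase; the read-out is not stated. Tested at 10 µM. Higher most likely means stronger inhibition; the record gives no direction and few retests gave an IC50. About 65,000 compounds were tested under these conditions; 0.098% (about 64) showed 50% or more at least once.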

The filed quantity is “Percent Effect” (%). The record does not define 0% and 100%; most values in the screen are far below 50% and negative numbers occur (in some assays of this library far below -100). Compounds were drawn at random from those tested, without regard to their results.

CCCn1c(C)c(CC(=O)NC(C)CO)c2c1CC(C)(C)CC2=O (stereo unspecified) read -2.13%.
CCCc1n[nH]c(C2CN(C(=O)c3cc4c(s3)CCC4)CCO2)n1 (stereo unspecified) read -4.126%.
COCCCN(Cc1ccncc1)c1ncc(C#N)cc1Cl read 0.5718%.
CCS(=O)(=O)N1CCc2nnc(CN(C)C(C)C)n2CC1 read 16.7%.
Cc1cc(C(=O)N(C)CCN(C)C(=O)OC(C)(C)C)oc1C read -3.374%.
Cc1cc(C(=O)N2C[C@H]3CCC[C@@]3(CO)C2)c2ccc(F)cc2n1 read -1.053%.
O=C(Nc1ccccn1)N(CCO)Cc1ccccc1Br read -0.4394%.
Cc1[nH]c(C2(N)CCCCC2)nc(=O)c1C read 2.431%.
Cc1cc(C(=O)N2CCC(Nc3cccnn3)CC2)no1 read -3.462%.
O=C(CC1CC1)N1CC[C@@H]2[C@H](CC1)N(Cc1cccnc1)CCS2(=O)=O read -2.813%.
CCCNC(=O)N1CCCC2(CCC(=O)N(CCc3c[nH]cn3)C2)C1 (stereo unspecified) read -3.936%.
CC(C)c1cc(C(=O)N2CCN(c3ccc(F)c(Cl)c3)CC2)n(C)n1 read 4.568%.
CCN(CC)CCn1cnc(-c2ccccc2)c1-c1ncc[nH]1 read -0.7236%.
Cc1cc(CC(=O)N2CCN(C)[C@@H]3CS(=O)(=O)C[C@@H]32)ccc1F read -0.277%.
O=C(NCCCc1nc(=O)[nH][nH]1)Nc1cccc(F)c1 read 1.19%.
Cc1cc(C(C)C(=O)N2CCCN(Cc3cscn3)CC2)c(C)o1 (stereo unspecified) read 3.302%.
O=C(NCc1ccccn1)[C@@H]1CC[C@@H]2[C@@H](CCN2c2ncc(F)cn2)O1 read -0.9856%.
CCN(CC)C(=O)[C@@H]1C[C@H](N)CN1c1noc(-c2ccccc2)n1 read 2.649%.
Cc1cc(-c2nc(-c3cccc(CN4CCOCC4)c3)no2)no1 read 0%.
COc1ccc(C(=O)COc2coc(CN3CCSCC3)cc2=O)cc1 read -1.022%.
O=S(=O)(C1CC1)N1CC[C@H]2OCC[C@@]2(COc2ncccc2F)C1 read -2.974%.
CC(=O)N1CCOCC2(CCN(Cc3ccc(C)s3)CC2)C1 read -3.673%.
Cc1[nH]ncc1C(=O)NCC(CO)Cc1ccc(Cl)cc1 (stereo unspecified) read -0.4167%.
COc1cc2c(cc1CNCc1cccnc1OC)OC(C)C2 (stereo unspecified) read -3.268%.
OC1CN(Cc2cccc(N3CCOCC3)c2)Cc2ccccc21 (stereo unspecified) read 5.568%.
CC(=O)N1CC2(CCN(C(=O)N(C)C)CC2)c2cc(C)ccc21 read 11.54%.
Cc1csc([C@@H]2C[C@@H]3CCN(C(=O)c4ccnnc4)C[C@H]3O2)n1 read -3.859%.
c1cc(CN2CCOCC3(C2)CN(Cc2nccs2)CCO3)ccn1 (stereo unspecified) read 10.76%.
Cc1noc(CN2CCCC2c2noc(C3CC3)n2)n1 (stereo unspecified) read 20.48%.
CCc1[nH]ncc1C(=O)N1CCCC(n2ccnc2C(C)C)C1 (stereo unspecified) read -3.97%.
CN(Cc1ccccc1)C(=O)CN1CCOC(Cn2cncn2)C1 (stereo unspecified) read -1.032%.
CO[C@H]1CN(Cc2nc3ccccc3n2C)C[C@@]12CCCO2 read 0.5208%.
COC[C@@]12CCO[C@@H]1CCN(Cc1ccccc1F)C2 read 1.069%.
Cc1nccn1CCCC(=O)Nc1nc(C(C)C)nn1C read 2.018%.
CC(C)(C)c1n[nH]c(C2CN(Cc3ncc[nH]3)CCO2)n1 (stereo unspecified) read -0.9183%.
COC(=O)N1CCCC(NC(=O)NCc2csc(C)n2)C1 (stereo unspecified) read 0.4691%.
O=S(=O)(NCC1(O)CCOc2ccccc21)c1cccs1 (stereo unspecified) read -0.2138%.
CCN1CCCC1Cn1ccc2ccc(C(=O)OC)cc2c1=O (stereo unspecified) read -1.957%.
CNC(=O)c1ccc2c(c1)C1(CCN(CC(C)C)CC1)C(=O)N2 read 1.006%.
CCn1c(NCc2ccccn2)nc2c(C)nn(C)c2c1=O read 0.7772%.
COCc1nc2ncc3c(=O)n(-c4ccc(OC)cc4)ccc3n2n1 read -4.516%.
CC(C)c1nc(CNC(=O)c2ccc(C(C)N3CCCCC3)o2)cs1 (stereo unspecified) read -0.4471%.
CC(C)n1nc(CN(C)C)c2c1CN(C(=O)CC1CC1)CC2 read 1.834%.
CC(C)n1cnnc1CNC(=O)c1cnn(-c2ccccc2)c1 read 1.135%.
CCCNC(=O)COc1cc(C)c2c(C)nn(-c3ccc(C)cc3)c2n1 read -1.527%.
CCOCCNC(=O)c1cc(Br)c2c(c1)OCCO2 read -2.91%.
COCCN1CCC(NC(=O)NCC2(c3cccc(F)c3)CC2)C1 (stereo unspecified) read 0.8614%.
Cn1cc(C2COC3(CCN(C(=O)c4cccc(O)c4)CC3)C2)cn1 (stereo unspecified) read 0.6255%.
CN1CCCC(c2cncc(C(=O)NCc3ccccc3Cl)n2)C1 (stereo unspecified) read -1.483%.
Cc1nn(C)cc1-c1cc(C(=O)NCC(C)(C)c2ccc(F)cc2)n[nH]1 read -6.12%.
CN1[C@H](Cn2cccn2)C[C@@H]2CN(C(=O)Cc3cccs3)CC[C@@H]21 read 0.687%.
COc1ncccc1C(=O)N1CC[C@H]2C[C@H](c3noc(C)n3)O[C@@H]2C1 read 0.1383%.
CC(=O)N1CC2(CCN(S(=O)(=O)N(C)C)CC2)C2(CCNC2=O)C1 (stereo unspecified) read -5.74%.
Cc1cc(C(=O)NCc2cccn2C)nn1C read 5.004%.
CCNC(=O)[C@@H]1C[C@H](NC(=O)c2cc(CC)n[nH]2)CN1Cc1ccsc1 read 1.607%.
CCN(CC)S(=O)(=O)N1CCCC1c1cccc(Nc2ncc(C)s2)n1 (stereo unspecified) read 1.882%.
Cc1cc(C(=O)Nc2ccc3oc(=O)n(CCN(C)C)c3c2)c(C)o1 read 6.155%.
COc1ccc(OCCN2CCC(N3CCNC3=O)CC2)cc1 read 9.773%.
CC[C@H](Nc1nc(C(C)C)nc2c1cnn2C)c1ccccc1 read -1.583%.

For reference, 7 entries once more:

| compound | effect |
|---|---|
| `COCCCN(Cc1ccncc1)c1ncc(C#N)cc1Cl` | 0.5718% |
| `CC(=O)N1CC2(CCN(C(=O)N(C)C)CC2)c2cc(C)ccc21` | 11.54% |
| `Cc1cc(C(=O)Nc2ccc3oc(=O)n(CCN(C)C)c3c2)c(C)o1` | 6.155% |
| `Cc1cc(CC(=O)N2CCN(C)[C@@H]3CS(=O)(=O)C[C@@H]32)ccc1F` | -0.277% |
| `CCCn1c(C)c(CC(=O)NC(C)CO)c2c1CC(C)(C)CC2=O` (stereo unspecified) | -2.13% |
| `Cc1cc(C(C)C(=O)N2CCCN(Cc3cscn3)CC2)c(C)o1` (stereo unspecified) | 3.302% |
| `Cc1nn(C)cc1-c1cc(C(=O)NCC(C)(C)c2ccc(F)cc2)n[nH]1` | -6.12% |